Measured values taken from publication PMC12718634.

Sequences of proteins named here, by UniProt entry; tags and fusion partners are left off.
UniProt P49023: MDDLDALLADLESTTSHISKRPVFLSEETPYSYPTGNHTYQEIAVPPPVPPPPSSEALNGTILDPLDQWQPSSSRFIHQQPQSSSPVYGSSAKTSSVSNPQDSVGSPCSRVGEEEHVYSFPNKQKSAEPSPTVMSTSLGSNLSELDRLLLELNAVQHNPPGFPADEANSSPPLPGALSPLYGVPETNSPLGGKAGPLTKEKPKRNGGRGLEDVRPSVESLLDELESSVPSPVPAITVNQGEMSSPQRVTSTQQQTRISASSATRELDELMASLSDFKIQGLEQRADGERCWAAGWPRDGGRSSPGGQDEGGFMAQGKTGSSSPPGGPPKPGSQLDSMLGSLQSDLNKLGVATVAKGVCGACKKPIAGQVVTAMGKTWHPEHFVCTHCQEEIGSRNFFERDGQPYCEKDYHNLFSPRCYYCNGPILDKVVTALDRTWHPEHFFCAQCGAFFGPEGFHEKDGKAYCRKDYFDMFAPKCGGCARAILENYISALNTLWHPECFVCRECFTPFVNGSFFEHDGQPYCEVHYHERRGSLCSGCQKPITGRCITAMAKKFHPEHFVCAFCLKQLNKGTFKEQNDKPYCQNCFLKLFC

B1: β-PIX (protein, UniProt Q9ES28 1-862)
chain: MNSAEQTVTWLITLGVLESPKKTISDPEVFLQASLKDGVVLCRLLERLLPGTIEKVYPEPRNESECLSNIREFLRACGASLRLETFDANDLYQGQNFNKVLSSLVTLNKVTADIGLGSDSVCARPSSHRIKSFDSLGSQSSHSRTSKLLQSQYRSLDMTDNTNSQLVVRAKFNFQQTNEDELSFSKGDVIHVTRVEEGGWWEGTHNGRTGWFPSNYVREIKPSEKPVSPKSGTLKSPPKGFDTTAINKSYYNVVLQNILETEHEYSKELQSVLSTYLRPLQTSDKLSSANTSYLMGNLEEISSFQQVLVQSLEECTKSPEAQQRVGGCFLSLMPQMRTLYLAYCANHPSAVSVLTEHSEDLGEFMETKGASSPGILVLTTGLSKPFMRLDKYPTLLKELERHMEDYHPDRQDIQKSMTAFKNLSAQCQEVRKRKELELQILTEPIRSWEGDDIKTLGSVTYMSQVTIQCAGSEEKNERYLLLFPNLLLMLSASPRMSGFIYQGKLPTTGMTITKLEDSENHRNAFEISGSMIERILVSCTSQQDLHEWVEHLQKQTKVTSVSNPTIKPHSVPSHTLPSHPLTPSSKHADSKPVALTPAYHTLPHPSHHGTPHTTISWGPLEPPKTPKPWSLSCLRPAPPLRPSAALCYKEDLSKSPKTMKKLLPKRKPERKPSDEEFAVRKSTAALEEDAQILKVIEAYCTSAKTRQTLNSTWQGTDLMHNHVLADDDQSSLDSLGRRSSLSRLEPSDLSEDSEYDSIWTAHSYRMGSASRSRKESAPQVLLPEEEKIIVEETKSNGQTVIEEKSLVDTVYALKDEVQELRQDNKKMKKSLEEEQRARKDLEKLVRKVLKNMNDPAWDETNL
B2: GIT1 (protein, UniProt Q68FF6 1-770)
chain: MSRKGPRAEVCADCSAPDPGWASISRGVLVCDECCSVHRSLGRHISIVKHLRHSAWPPTLLQMVHTLASNGANSIWEHSLLDPAQVQSGRRKANPQDKVHPIKSEFIRAKYQMLAFVHKLPCRDDDGVTAKDLSKQLHSSVRTGNLETCLRLLSLGAQANFFHPEKGTTPLHVAAKAGQTLQAELLVVYGADPGSPDVNGRTPIDYARQAGHHELAERLVECQYELTDRLAFYLCGRKPDHKNGHYIIPQMADRSRQKCMSQSLDLSELAKAAKKKLQALSNRLFEELAMDVYDEVDRRENDAVWLATQNHSTLVTERSAVPFLPVNPEYSATRNQGRQKLARFNAREFATLIIDILSEAKRRQQGKSLSSPTDNLELSARSQSELDDQHDYDSVASDEDTDQEPLPSAGATRNNRARSMDSSDLSDGAVTLQEYLELKKALATSEAKVQQLMKVNSSLSDELRRLQREIHKLQAENLQLRQPPGPVPPPSLPSERAEHTLMGPGGSTHRRDRQAFSMYEPGSALKPFGGTPGDELATRLQPFHSTELEDDAIYSVHVPAGLYRIRKGVSASSVPFTPSSPLLSCSQEGSRHASKLSRHGSGADSDYENTQSGDPLLGLEGKRFLELSKEDELHPELESLDGDLDPGLPSTEDVILKTEQVTKNIQELLRAAQEFKHDSFVPCSEKIHLAVTEMASLFPKRPALEPVRSSLRLLNASAYRLQSECRKTVPPEPGAPVDFQLLTQQVIQCAYDIAKAAKQLVTITTREKKQ
B3: vinexin (protein, UniProt Q9R1Z8 1-733)
chain: MARILGVGRSSASSLNNKEDNESDVALLSPKDPNRVHTKEQLAHPASSNLDPSMQGLPAGLSLDDFIPGHLRTHIGSSSRGTRVPVIRNGGSNTLNFQFHDPAPRTVCNGCPPPRRDGSLNPDPAWYQTWPGPGSRPSMSPKPPASQHAQNWSATWTKDSKRQDKRWVKYEGIGPVDESGMPIAPRSSVDSPRDWYRRMFQQIHRKMPDLQLDWTLEDPPKVVSARASSAEPRHLGTLQRPASRPGTTETSSGRNWNHSEETSRNTFNYNFRPSSSGLHPPNQVPRHREKVENVWTEDSWNQFLHELETGHKPKKPLVDDPVEKPAQPIEVLLERELAKLSAELDKDLRAIETRLPSPKNSQAPRRPLEQPGLEQQPSARLSSAWRPNSPHAPYFSSSRPLSPHRMADGGGSPFLGRRDFVYPSSAREPSASERGSSPSRKEEKKRKAARLKFDFQAQSPKELSLQKGDIVYIHKEVDKNWLEGEHHGRLGIFPANYVEVLPADEIPKPIKPPTYQVLEYGDAVAQYTFKGDLEVELSFRKGERICLIRKVNEHWYEGRITGTGRQGIFPASYVQINREPRLRLCDDGPQLPASPNPTTTAHLSSHSHPSSIPVDPTDWGGRTSPRRSAFPFPITLQEPRSQTQSLNTPGPTLSHPRATSRPINLGPSSPNTEIHWTPYRAMYQYRPQNEDELELREGDRVDVMQQCDDGWFVGVSRRTQKFGTFPGNYVAPV
B4: pragmin (protein, UniProt Q571I4 1-1373)
chain: MSACSDFVEHIWKPGSCKNCFCLRSDHQPTAGHPKARANSLPAGTRLPARPENCRLDDEGVNGLAYSKPTIAVKPTMMTSETSDLWTEASLSAEVPKVNWRRTPGKLLLPKQEDEPIVYLGSFRGLQKPASPLACTDGNSRCPPAYTMVGLHNLEARVDRNTAFQPVSFQEEKAGREELPSAHESFRQKLAAFAGMTSSCPKGPRPCTSPQPLRESLPSEDDSDQRCSPSGDSEGGEYCSILDCCPESKDAVHSTEGSGRRGGDCSPTCREQGPRTRPTEEEKQGLSFPRECCGQGSTANPPRLGPKKPSLNSEAASSSDGLSCGSSRSGASSPFAPHLENDYCSLVKEPASGKQQDLSGHFLTSGKCVGQAAELQPASLLRDPVQPEPIYAESAKRKKAAPGPPRPEPKKEQVPAGHSQGQVWTGDTWIQKTPPSWSQDREGANPAPQVATTITVIAAHPEEDHRTIYLSSPDSAVGVQWPRGPSNQDLQAGEEEPLVAQGLTSRESHPHNVTENTAKEKPAIPPKLSKSSPGGSPVSPAPPLTDHSDGNTGGSSVGPQLLSRVPANLTSSCHTNGVATAGDSAKCPPPATSSSVLDQRRPRYQTGAWSRQCRIEEEEEVGQELSQSWGRELENGTADHSNSSTWHRLHPIDGTSGQNSKTNSGMSKSASFAFEFPKDRGRLEAFSPPPPPPKSRHLLKMNKSSSDLEKVSQSSAESLSPSFRGAHVSFTTGSTDSLASDSRPCSDGGPSYEPTHSPTISGKKLFAPVPFPSGSTEDVSPGGGPAQPPPLPQKKIVSRAASSPDGFFWTQGSPKPRTASPKLNLSHSETNVCAHDEPPFNCSLNSGNRSHHVFSSSEPLGKAFKGNAPWAPALGLANSKGGCGSPSLQCRAATSTSSSQLSVSSQASSSSTQLQLHSLLSSISSKEGTYAKLGGLYTQSLARLVTKCEDLFMGGQKKELRFNENYWSLFKLTCNKPCCDSGDAIYYCATCSEDPGSIYAVKICKTPEPKSASYCSPSVPVHFNIQQDCGHFVASVPSSMLASPDTSSKDTAPAVSPQPPAQEQDCVVVITREVPHQTASDFVRDSMASHRAEPEVYERRVCFLLLQLCNGLEHLKEHGIIHRDLCLENLLLAHCNPQSSPGPSATPTVPTTTSRCPSAAPAATTACQGGPGEKQLPRLIISNFLKAKQKPGGTTNLQQKKSQARLAPEIVSASQYRKFDEFQTGILIYELLHQPNPFEVRAQLRERDYRREDLPPLPTLSLYSPGLQQLAHLLLEADPIKRIRIGEAKRVLQCLLWGPRRELVEQPCTSEEVLCNTLHNWIDMKRALMMMKFAEKAVDRRRGVELEDWLCCQYLASAEPGALLQSLKLLQLL
B5: tensin3 (protein, UniProt Q5SSZ5 1-1440)
chain: MEDSHELDLTYVTERIIAVSFPASCSEESYLHSLQEVTRMLKCKHGDNYLVLNLSEKRYDLTKLNPKIMDVGWPELHAPPLDKMCTICKAQESWLNNDPQHVVVIHCRGGKGRIGVVISSYMHFTNVSASADQALDRFAMKKFYDDKISALMEPSQKRYVQFLSGLLSGAMKMNTSPLFLHFVIMHGVPSFDTGGACRPFLKLYQAMQPVYTSGIYNVGSENPSRIRIAIEPAQLLKGDIMVKCYHKKFRSATRDVIFRLQFHTGAVQGYGLLFGKEELDSACKDDRFPDYGKIELVFSATPEKIQGSEHLYSDQGVTVDYNTADPLIRWDSYENMSADGEVLHTQGPVDGSLYAKVRKKSASDTGIPSSPQGMPATSSPDHGDHTLSVSSDSGHSTASARTDKTEERLTPGARRGLSPQEKAELDQLLSGFGLEDSASSHKDMTDMRSKYSGTRHVVPAQVHVNGDAALKDRETDILDDEMPHHDLHSVDSLGTLSSSEGPQSTHLGPFTCLKSSQNSLLSDGFGNGVAEDHNGVLSPDLGLGVDTLYDRERMCGGREQKPLQPLLRKPSAPTPVQAYGQSNYSTQTWVRQQQMVAAHQYSFASDGEARLGSRSTVDNTGLAQPPPHIPVTPNRGASSRVAVQRGISNGPNPPDTQQLCPGKALQPRFQDDRVTNGVHQEPNTGSSPGSPTLDIDQSIEQLNRLILELDPTFEPIPTHLNALGISAVCPDGVGSGLRCSGRLDSVDGPGRSPGRQGDDPIGGRLRKLSIGQYDNDAASQVTFSKCGWGKAGVDPAPSLGSFSSPEDIKETVITAYPSDLNMIDGRIPNSKESSMCLTPSFPVSPETPYVKTSPRYPPFSPPEPQLSSPASLHKGREPRGCPEIISHTVGMSESPVGPKPTMLRADMPATPNFQQVFASSCTVSSNGPGQRRESPPSAERQWVESSPKSTLTLLGNSHPSESPLGTHEFCSSGKDSPGLPCFQSSELQASFHSHELSMSEPQGALPPAGSQTFLGFNTVTTATSVLPPGEDAGTLLVNSHGTSPAPGTPLLTTGAADNGFLPHNFLTVSPGASSHHSPGLQNQNVSLPGQPPLPEKKRASEGDRSLGSVSPSSSGFSSPHSGSTMSIPFPNVLPDFCKPSEVASPLPDSPNDKLVIVKFVQDTSKFWYKADISREQAIAMLKDKAPGSFIVRDSHSFRGAYGLAMKVATPPPSVLHLNKKAGDLSNELVRHFLIECTPKGVRLKGCSNEPYFGSLTALVCQHSITPLALPCKLLIPERDPLEEIAENSPQTAANSAAELLKQGAACNVWYLNSVEMESLTGHQAVQKALSMTLVQEPPPVSTVVHFKVSAQGITLTDNQRKLFFRRHYPVSSVIFCALDPQDRKWIKDGPSSKVFGFVARKQGSATDNVCHLFAEHDPEQPASAIVNFVSKVMIGSPKKI
B6: Kank2 (protein, UniProt Q8BX02 1-843)
chain: MAQVLHVPAPFPGTPGQASPAAFPSKEPDPPYSVETPYGYRLDLDFLKYVDDIEKGHTLRRVAVQRRPRLGSLPRGPGSWWTSTESLCSDASGDSRHSAYSYCGRGFYPQYGALETRIGSNPRVERTLLDARRRLEDQAAAPSSGGLGSLTPSAAGSTSSLAGVGLLPPTPRSSGLSTPVAPSAGHLAHVREQMAGALRKLRQLEEQVKLIPVLQVKLSVLQEEKRQLTVQLKSQKFLGHPSGTRSRSELCLDLPEAPDDPAALETRSVGTWVRERDLGIPDGEAALVAKVAVLETQLKKALQELRAAQTQQVDLQPQAWPPPDTQVRVDTVRVVEGPREVEVAASTAAGALAQRAQSLEPYGTGLKALTTSGGPENTLVFRSHEVVETMCPLPTATTGNVHTAKKISITERSCTGAPRMTEPSSVNPRPAAASVVQPENPVPAAQDTTDKKPTRPAAASQDSQAADGAGRASLATKRKEDPADPEVNQRNLQFVGVNGGYESPSEDSSTAENSEHESTENEGPEPPARVLSPAECPQLRPPGAAVATTSLEGPQLSQESQRVPAPEVASGPDPEEEIRMDLSPDLISACLALEKYLENPNALTERELKVAYTTVLQEWLRLACRSDAHPELVRRHLVTFRAMSARLLDYVVNIADSNGNTALHYSVSHANFPVVRQLLDSGVCHVDKLNRAGYSPIMLTALATLKTQDDIETILQLFRLGNVNAKASQAGQTALMLAVSHGRVDVVRALLACEADVNIQDEDGSTALMCACEHGHKEITGLLLAVPSCDISLTDRDGSTALMVALDAGQSEIASMLYSRMNIKCSFAPMSDYESPASSSAEE

target: GFP-BirA*-Paxillin (UniProt P49023); test: proximity labelling; Bio-ID: GFP-BirA*-Paxillin as bait, stably expressed in B16-F1 control and Cyri-b KO cells on laminin; biotin or DMSO for 16 h; biotinylated proteins captured on NeutrAvidin agarose, on-bead digestion, mass spectrometry (label-free quantification)

binding, binds:
B1, B2, B3, B4, B5, B6

No constants are given. Whether binding was seen depends on the method and setting. Binding seen in cells or lysates may run through a third protein. A yes stands for co-enrichment or nearness to the bait. Other partners may have been found.
